According to article PMC8192512:
No constants are given. Whether binding was seen depends on the method and setting. Binding seen in cells or lysates may run through a third protein. Some results given as binding are weak or reduced against the parent protein; the word gives no strength.

The chains behind the UniProt entries cited, without tags or fusion partners. Residues count along the entry.
UniProt E2JF22: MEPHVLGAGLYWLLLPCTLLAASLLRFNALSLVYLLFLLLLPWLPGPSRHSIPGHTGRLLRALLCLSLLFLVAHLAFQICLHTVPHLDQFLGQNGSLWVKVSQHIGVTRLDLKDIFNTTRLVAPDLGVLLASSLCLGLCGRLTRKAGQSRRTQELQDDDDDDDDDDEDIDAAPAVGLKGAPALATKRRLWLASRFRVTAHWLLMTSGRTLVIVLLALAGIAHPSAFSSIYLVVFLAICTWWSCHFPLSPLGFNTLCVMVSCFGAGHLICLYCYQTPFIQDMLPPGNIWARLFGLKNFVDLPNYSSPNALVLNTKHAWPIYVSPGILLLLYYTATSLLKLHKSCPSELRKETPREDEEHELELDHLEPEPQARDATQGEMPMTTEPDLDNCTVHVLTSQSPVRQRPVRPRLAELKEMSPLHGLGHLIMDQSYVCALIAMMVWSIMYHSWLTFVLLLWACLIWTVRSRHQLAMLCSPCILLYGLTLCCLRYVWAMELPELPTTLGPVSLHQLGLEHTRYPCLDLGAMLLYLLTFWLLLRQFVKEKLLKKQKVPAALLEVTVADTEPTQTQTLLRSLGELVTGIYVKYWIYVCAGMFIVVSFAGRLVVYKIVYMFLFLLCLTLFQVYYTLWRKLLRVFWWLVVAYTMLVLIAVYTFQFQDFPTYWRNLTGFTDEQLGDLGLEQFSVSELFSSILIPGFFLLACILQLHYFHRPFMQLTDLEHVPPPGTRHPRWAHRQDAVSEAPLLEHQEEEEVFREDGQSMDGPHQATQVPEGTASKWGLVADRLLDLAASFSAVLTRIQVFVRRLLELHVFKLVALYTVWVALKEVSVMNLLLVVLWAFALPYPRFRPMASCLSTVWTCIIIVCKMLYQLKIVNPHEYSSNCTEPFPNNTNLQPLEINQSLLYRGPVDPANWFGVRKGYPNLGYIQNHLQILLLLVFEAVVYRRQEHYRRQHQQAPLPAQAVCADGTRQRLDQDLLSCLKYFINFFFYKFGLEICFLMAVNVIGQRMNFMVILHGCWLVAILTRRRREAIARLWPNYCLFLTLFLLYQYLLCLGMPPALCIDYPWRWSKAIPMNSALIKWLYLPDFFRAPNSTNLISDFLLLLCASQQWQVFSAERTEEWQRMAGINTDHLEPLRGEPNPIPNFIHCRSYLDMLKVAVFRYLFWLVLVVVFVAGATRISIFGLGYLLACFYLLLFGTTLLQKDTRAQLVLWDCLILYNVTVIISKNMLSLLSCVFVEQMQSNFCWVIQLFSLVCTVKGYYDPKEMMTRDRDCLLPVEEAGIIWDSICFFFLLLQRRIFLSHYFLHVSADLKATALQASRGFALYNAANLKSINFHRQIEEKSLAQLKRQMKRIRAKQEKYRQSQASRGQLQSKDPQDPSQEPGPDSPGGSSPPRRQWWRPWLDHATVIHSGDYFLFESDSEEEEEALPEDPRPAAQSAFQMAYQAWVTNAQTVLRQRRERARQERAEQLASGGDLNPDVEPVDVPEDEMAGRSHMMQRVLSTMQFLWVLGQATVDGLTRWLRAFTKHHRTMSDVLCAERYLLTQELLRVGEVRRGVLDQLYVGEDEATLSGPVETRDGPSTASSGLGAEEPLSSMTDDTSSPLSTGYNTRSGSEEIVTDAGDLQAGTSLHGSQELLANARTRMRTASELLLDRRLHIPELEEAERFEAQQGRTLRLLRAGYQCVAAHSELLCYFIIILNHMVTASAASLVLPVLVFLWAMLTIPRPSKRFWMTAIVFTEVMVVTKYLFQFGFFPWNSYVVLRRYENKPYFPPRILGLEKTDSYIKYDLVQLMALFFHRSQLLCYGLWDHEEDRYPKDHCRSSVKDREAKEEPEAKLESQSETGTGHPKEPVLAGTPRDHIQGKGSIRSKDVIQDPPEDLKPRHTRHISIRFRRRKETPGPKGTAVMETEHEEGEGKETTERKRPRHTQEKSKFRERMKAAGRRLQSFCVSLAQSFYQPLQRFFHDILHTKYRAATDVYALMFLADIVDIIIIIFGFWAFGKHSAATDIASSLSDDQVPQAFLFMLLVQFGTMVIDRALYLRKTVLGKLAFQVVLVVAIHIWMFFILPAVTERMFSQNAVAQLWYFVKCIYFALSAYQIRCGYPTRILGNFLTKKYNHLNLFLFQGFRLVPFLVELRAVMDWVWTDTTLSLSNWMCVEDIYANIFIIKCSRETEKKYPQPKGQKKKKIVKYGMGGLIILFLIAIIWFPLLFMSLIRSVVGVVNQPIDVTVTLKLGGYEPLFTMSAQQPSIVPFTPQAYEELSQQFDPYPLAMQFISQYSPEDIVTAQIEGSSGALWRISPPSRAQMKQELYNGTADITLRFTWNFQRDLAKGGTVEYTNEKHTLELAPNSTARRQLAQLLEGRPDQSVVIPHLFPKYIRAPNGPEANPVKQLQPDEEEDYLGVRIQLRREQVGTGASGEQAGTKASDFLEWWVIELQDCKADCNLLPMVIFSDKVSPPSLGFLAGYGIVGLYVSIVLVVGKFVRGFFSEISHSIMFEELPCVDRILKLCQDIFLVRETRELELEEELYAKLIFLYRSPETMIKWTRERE
UniProt Q9QUK6, residues 26-835: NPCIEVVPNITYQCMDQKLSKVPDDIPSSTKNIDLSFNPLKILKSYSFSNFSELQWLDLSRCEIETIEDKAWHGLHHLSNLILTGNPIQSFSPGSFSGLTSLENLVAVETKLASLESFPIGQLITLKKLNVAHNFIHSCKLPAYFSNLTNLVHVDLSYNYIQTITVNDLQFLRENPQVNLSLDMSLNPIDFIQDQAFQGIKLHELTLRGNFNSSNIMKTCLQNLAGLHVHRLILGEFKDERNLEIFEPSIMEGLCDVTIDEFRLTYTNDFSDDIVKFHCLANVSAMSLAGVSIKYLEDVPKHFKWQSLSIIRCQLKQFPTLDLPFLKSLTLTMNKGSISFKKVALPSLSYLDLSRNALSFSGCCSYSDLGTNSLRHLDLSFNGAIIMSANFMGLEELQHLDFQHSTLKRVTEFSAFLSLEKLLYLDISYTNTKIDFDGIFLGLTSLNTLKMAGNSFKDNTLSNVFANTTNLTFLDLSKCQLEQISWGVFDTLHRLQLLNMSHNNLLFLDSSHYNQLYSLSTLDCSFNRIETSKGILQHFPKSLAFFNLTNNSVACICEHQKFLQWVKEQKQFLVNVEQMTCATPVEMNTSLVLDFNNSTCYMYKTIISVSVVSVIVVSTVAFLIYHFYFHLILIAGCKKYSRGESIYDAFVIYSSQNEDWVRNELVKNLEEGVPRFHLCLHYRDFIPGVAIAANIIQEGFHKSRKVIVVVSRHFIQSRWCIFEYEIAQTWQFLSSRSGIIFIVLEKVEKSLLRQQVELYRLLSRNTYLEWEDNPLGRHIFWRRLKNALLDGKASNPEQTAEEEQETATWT

Key:
mTagBFP-Piezo1 = mTagBFP-Piezo1 (UniProt E2JF22); assay: FRET or BRET; 293T cells co-transfected with mTagBFP-Piezo1 and GFP-TLR4; acceptor photobleaching (488 nm), FRET efficiency from BFP to GFP; confocal microscope
[1] = biological target: Piezo1-tdTomato fusion protein (mouse (endogenous locus in BMDMs of Piezo1^P1tdT mice)) (UniProt E2JF22); assay: co-IP; BMDMs expressing RFP-tagged Piezo1 treated with or without LPS; immunoprecipitated with anti-RFP or control IgG, immunoblot with anti-TLR4 or anti-RFP

binding (mTagBFP-Piezo1)	binding [1]	Substance
binds		GFP-TLR4 (from UniProt Q9QUK6 26-835) (receptor)
	binds	TLR4 (from UniProt Q9QUK6 26-835) (receptor)
